Results as given in publication PMC8640933.
No constants are given. Whether binding was seen depends on the method and setting. For part of these data: Binding calls can cover weak binding; strength is not graded here. Sequences can lack the tags named with a protein. For part of these data: In cells and extracts the contact can be indirect.

Experiments:
[1] = biological target: T1, BD-Cnp20 (full-length CENP-T^Cnp20, yeast two-hybrid fusion) (Schizosaccharomyces pombe) (UniProt Q9HGK9); assay: two-hybrid; in S. cerevisiae; spotted on SD -LT or SD -LTH with 60 mM or 75 mM 3-AT, 30 °C; AD and BD fusions
T1 sequence: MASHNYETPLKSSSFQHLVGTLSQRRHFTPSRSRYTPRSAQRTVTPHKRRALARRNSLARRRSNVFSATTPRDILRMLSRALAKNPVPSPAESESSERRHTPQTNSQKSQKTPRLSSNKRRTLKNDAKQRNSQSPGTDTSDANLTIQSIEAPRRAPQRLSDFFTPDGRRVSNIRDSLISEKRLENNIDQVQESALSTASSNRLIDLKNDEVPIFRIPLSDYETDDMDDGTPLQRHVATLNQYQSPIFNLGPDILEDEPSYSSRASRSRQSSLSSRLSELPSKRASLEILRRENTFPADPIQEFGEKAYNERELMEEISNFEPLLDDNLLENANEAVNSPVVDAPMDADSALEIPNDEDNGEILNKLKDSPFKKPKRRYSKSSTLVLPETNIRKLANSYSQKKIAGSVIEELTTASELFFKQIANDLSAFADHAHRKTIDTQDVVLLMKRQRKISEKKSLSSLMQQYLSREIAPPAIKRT

[2] = biological target: T2, BD-Cnp20-N (aa 1 to 368) (Schizosaccharomyces pombe) (UniProt Q9HGK9); assay: as above
T2 sequence: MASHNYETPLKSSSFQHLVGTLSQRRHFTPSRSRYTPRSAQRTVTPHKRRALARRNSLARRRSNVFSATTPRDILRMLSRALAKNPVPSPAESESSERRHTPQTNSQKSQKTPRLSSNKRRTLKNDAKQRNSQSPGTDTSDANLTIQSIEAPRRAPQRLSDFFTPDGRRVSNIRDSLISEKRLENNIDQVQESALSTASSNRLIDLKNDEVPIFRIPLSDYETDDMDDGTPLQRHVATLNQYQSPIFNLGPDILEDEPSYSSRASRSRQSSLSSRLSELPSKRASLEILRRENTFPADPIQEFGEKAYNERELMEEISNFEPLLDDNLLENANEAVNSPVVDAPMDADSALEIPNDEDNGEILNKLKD

[3] = biological target: T3, CENP-T^Cnp20 aa 1 to 44 (yeast two-hybrid fusion) (Schizosaccharomyces pombe) (UniProt Q9HGK9); assay: as above
T3 sequence: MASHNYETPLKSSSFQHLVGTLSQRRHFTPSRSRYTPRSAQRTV

[4] = biological target: T4, CENP-T^Cnp20 aa 1 to 55 (CIM domain, yeast two-hybrid fusion) (Schizosaccharomyces pombe) (UniProt Q9HGK9); assay: as above
T4 sequence: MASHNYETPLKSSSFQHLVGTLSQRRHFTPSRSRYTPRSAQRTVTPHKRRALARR

[5] = biological target: T5, CENP-T^Cnp20 aa 1 to 88 (yeast two-hybrid fusion) (Schizosaccharomyces pombe) (UniProt Q9HGK9); assay: as above
T5 sequence: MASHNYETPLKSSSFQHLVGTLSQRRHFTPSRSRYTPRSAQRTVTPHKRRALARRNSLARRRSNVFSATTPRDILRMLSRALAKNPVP

[6] = biological target: T6, CENP-T^Cnp20 aa 16 to 55 (yeast two-hybrid fusion) (Schizosaccharomyces pombe) (UniProt Q9HGK9); assay: as above
T6 sequence: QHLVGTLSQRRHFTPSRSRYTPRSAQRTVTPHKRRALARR

[7] = biological target: T7, Cnp20-C (aa 369 to 479) (Schizosaccharomyces pombe) (UniProt Q9HGK9); assay: as above
T7 sequence: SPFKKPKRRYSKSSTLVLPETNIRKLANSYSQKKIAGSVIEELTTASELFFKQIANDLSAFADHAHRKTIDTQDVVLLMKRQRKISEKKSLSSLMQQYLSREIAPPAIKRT

[8] = biological target: T8, CENP-T^Cnp20-TAP (Schizosaccharomyces pombe) (UniProt Q9HGK9); assay: co-IP; lysates of S. pombe cells expressing GFP-Ccp1 and CENP-T^Cnp20-TAP, immunoprecipitated with an antibody specific for TAP, Western blot; cells expressing GFP-Ccp1 only as control
T8 sequence: T1 sequence

[9] = biological target: T9, peptide derived from Cnp20^15-40 (Schizosaccharomyces pombe) (UniProt Q9HGK9); assay: pull-down; in vitro; peptides derived from Cnp20 pull down purified Ccp1; 'nonstringent conditions with much higher protein levels'; both purified
T9 sequence (peptide): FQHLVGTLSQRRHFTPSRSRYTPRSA

[10] = biological target: T10, peptide derived from Cnp20^31-56 (Schizosaccharomyces pombe) (UniProt Q9HGK9); assay: as above
T10 sequence (peptide): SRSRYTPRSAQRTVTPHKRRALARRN

For “AD-Ccp1 (yeast two-hybrid fusion) (Schizosaccharomyces pombe)”, the binding [1] was “binds”, the binding [2] was “binds” and the binding [3] was “binds weakly”. For the same substance, the binding [4] was “binds”, the binding [5] was “binds” and the binding [6] was “binds weakly”. For the same substance, the binding [7] was “no binding”.
For “AD-Ccp1-4A (homodimer mutant, yeast two-hybrid fusion) (Schizosaccharomyces pombe)”, the binding [1] was “no binding” and the binding [2] was “no binding”.
GFP-Ccp1 (Schizosaccharomyces pombe) was tested, and the binding [8] was “binds”.
“purified full-length Ccp1 (Schizosaccharomyces pombe)” was tested, and the binding [9] was “binds” and the binding [10] was “binds”.
